From publication PMC8253226 come the findings set out here.

Results are given in words; binding and its absence hold for the method and conditions named. Binding can be weak; no strength is given.

Assay [1] deals with T1, AtTT8 (Arabidopsis) (UniProt Q9FT81).
T1 sequence: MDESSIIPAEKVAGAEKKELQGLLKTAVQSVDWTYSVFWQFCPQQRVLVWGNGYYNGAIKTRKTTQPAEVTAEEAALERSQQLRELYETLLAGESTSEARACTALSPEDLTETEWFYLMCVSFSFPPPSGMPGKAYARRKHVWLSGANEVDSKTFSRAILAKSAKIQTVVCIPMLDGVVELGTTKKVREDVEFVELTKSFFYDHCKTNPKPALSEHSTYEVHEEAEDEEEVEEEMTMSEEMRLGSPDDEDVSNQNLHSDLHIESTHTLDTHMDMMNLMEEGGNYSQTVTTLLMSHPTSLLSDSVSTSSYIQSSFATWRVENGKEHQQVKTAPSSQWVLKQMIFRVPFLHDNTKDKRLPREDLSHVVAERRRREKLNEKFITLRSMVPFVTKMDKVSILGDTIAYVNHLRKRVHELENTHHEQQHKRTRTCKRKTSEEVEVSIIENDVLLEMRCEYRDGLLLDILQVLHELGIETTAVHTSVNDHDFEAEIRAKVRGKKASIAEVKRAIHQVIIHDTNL
Kind of assay: two-hybrid; Matchmaker Gold Yeast Two-Hybrid System; baits in pGBKT7, prey MrMYB6 in pGADT7, co-transferred into Y2H yeast; growth and alpha-galactosidase activity on SD/-Leu/-Trp/-His/-Ade with X-alpha-Gal.

In assay [2] the target is T2, AtTTG1 (Arabidopsis) (UniProt Q9XGN1).
T2 sequence: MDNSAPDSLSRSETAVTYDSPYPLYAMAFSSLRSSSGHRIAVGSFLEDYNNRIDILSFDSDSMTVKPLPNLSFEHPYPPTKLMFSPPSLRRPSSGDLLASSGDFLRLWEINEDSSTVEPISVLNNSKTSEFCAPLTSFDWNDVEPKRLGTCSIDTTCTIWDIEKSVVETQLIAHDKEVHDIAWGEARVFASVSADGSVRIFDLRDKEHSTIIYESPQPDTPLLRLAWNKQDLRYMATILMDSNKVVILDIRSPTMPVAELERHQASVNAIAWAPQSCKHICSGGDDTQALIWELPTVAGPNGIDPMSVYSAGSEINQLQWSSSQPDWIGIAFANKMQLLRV
Described as above.

As for MrMYB6, the binding entry in assay [1] and in assay [2] was “binds” throughout.
